Experimental data: patent publication US8476434B2, “Protein kinase modulators and method of use” (Amgen Inc., priority 2004, dated 2013)
Some results were stated once for a whole list of compounds, not compound by compound.

Chains of the proteins cited; added tags and fusions are not shown. Residues count along the entry.
UniProt Q02763, 23-1124: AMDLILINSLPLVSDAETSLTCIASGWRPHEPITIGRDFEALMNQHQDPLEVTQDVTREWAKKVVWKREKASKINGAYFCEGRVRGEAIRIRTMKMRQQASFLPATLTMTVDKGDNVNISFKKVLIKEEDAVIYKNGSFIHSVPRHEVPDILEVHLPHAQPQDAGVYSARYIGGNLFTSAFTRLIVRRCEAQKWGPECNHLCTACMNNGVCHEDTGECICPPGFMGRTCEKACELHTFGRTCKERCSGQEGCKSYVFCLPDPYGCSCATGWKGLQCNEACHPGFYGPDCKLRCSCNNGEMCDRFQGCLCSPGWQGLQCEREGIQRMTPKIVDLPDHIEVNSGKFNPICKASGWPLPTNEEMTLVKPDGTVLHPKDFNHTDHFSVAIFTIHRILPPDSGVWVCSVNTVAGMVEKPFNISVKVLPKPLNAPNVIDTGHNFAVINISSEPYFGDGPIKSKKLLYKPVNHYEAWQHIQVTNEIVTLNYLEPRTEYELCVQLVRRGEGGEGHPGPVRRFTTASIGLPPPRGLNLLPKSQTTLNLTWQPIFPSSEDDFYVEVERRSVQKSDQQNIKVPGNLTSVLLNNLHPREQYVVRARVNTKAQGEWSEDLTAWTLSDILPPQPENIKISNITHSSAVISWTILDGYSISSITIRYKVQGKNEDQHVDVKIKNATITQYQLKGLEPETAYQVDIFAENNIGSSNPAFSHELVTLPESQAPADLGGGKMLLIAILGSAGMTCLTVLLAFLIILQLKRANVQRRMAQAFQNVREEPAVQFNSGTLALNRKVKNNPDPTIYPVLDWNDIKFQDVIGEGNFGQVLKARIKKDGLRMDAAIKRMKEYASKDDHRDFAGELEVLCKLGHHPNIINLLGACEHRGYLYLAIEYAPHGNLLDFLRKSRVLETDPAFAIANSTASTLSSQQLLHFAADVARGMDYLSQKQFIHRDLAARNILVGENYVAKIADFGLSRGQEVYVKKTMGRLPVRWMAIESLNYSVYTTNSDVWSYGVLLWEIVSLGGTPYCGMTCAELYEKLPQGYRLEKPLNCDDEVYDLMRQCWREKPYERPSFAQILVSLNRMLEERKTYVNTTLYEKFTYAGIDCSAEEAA

Biological target: Tie-2 kinase enzyme (Homo sapiens, UniProt Q02763)
Assay: Tie-2 Homogenous Time Resolved Fluorescent (HTRF) kinase assay
Format: biochemical
Conditions: read-out: IC50's for the inhibition of Tie-2 as measured by the HTRF assay

| Structure (SMILES) | IC50 |
| --- | --- |
| CNc1nccc(-c2cccnc2Oc2cc(C(=O)Nc3ccccc3)ccc2Cl)n1 [Example 306, 4-chloro-3-((3-(2-(methylamino)-4-pyrimidinyl)-2-pyridinyl)oxy)-N-phenylbenzamide] | < 5 µM |
| CNc1nccc(-c2cccnc2Oc2cc(C(=O)Nc3cccc(C(F)(F)F)c3)ccc2Cl)n1 [Example 307, 4-chloro-3-((3-(2-(methylamino)-4-pyrimidinyl)-2-pyridinyl)oxy)-N-(3-(trifluoromethyl)phenyl) benzamide] | < 5 µM |
| CNc1nccc(-c2cccnc2Oc2cc(C(=O)Nc3cc(C4CCCCC4)ccc3OC)ccc2Cl)n1 [Example 309, 4-chloro-N-(5-cyclohexyl-2-(methyloxy)phenyl)-3-((3-(2-(methylamino)-4-pyrimidinyl)-2-pyridinyl)oxy)benzamide] | < 5 µM |
| CNc1nccc(-c2cccnc2Oc2cc(C(=O)Nc3cc(OC[C@@H]4CCCN4C)cc(C(F)(F)F)c3)ccc2Cl)n1 [Example 310, 4-chloro-3-((3-(2-(methylamino)-4-pyrimidinyl)-2-pyridinyl)oxy)-N-(3-((((2S)-1-methyl-2-pyrrolidinyl)methyl)oxy)-5-(trifluoromethyl)phenyl) benzamide] | < 5 µM |
| CNc1nccc(-c2cccnc2Oc2cc(C(=O)Nc3ccccc3OC)ccc2Cl)n1 [Example 311, 4-chloro-3-((3-(2-(methylamino)-4-pyrimidinyl)-2-pyridinyl)oxy)-N-(2-(methyloxy)phenyl) benzamide] | < 5 µM |
| CNc1nccc(-c2cccnc2Oc2cc(C(=O)Nc3ccc(C(C)C)cc3)ccc2Cl)n1 [Example 312, 4-chloro-3-((3-(2-(methylamino)-4-pyrimidinyl)-2-pyridinyl)oxy)-N-(4-(1-methylethyl)phenyl) benzamide] | < 5 µM |
| CNc1nccc(-c2cccnc2Oc2cc(C(=O)Nc3cccc(C(F)(F)F)c3C)ccc2Cl)n1 [Example 313, 4-chloro-3-((3-(2-(methylamino)-4-pyrimidinyl)-2-pyridinyl)oxy)-N-(2-methyl-3-(trifluoromethyl)phenyl) benzamide] | < 5 µM |
| CNc1nccc(-c2cccnc2Oc2cc(C(=O)Nc3ccccc3)ccc2F)n1 [Example 314, 4-fluoro-3-((3-(2-(methylamino)-4-pyrimidinyl)-2-pyridinyl)oxy)-N-phenylbenzamide] | < 5 µM |
| CNc1nccc(-c2cccnc2Oc2cc(C(=O)Nc3cccc(C(F)(F)F)c3)ccc2F)n1 [Example 315, 4-fluoro-3-((3-(2-(methylamino)-4-pyrimidinyl)-2-pyridinyl)oxy)-N-(3-(trifluoromethyl)phenyl) benzamide] | < 5 µM |
| CNc1nccc(-c2cccnc2Oc2cc(C(=O)Nc3cc(C4CCCCC4)ccc3OC)ccc2F)n1 [Example 317, N-(5-cyclohexyl-2-(methyloxy)phenyl)-4-fluoro-3-((3-(2-(methylamino)-4-pyrimidinyl)-2-pyridinyl)oxy)benzamide] | < 5 µM |
| CNc1nccc(-c2cccnc2Oc2cc(C(=O)Nc3cc(OC[C@@H]4CCCN4C)cc(C(F)(F)F)c3)ccc2F)n1 [Example 318, 4-fluoro-3-((3-(2-(methylamino)-4-pyrimidinyl)-2-pyridinyl)oxy)-N-(3-((((2S)-1-methyl-2-pyrrolidinyl)methyl)oxy)-5-(trifluoromethyl)phenyl) benzamide] | < 5 µM |
| CNc1nccc(-c2cccnc2Oc2cc(C(=O)Nc3ccccc3OC)ccc2F)n1 [Example 319, 4-fluoro-3-((3-(2-(methylamino)-4-pyrimidinyl)-2-pyridinyl)oxy)-N-(2-(methyloxy)phenyl) benzamide] | < 5 µM |
| CNc1nccc(-c2cccnc2Oc2cc(C(=O)Nc3ccc(C(C)C)cc3)ccc2F)n1 [Example 320, 4-fluoro-3-((3-(2-(methylamino)-4-pyrimidinyl)-2-pyridinyl)oxy)-N-(4-(1-methylethyl)phenyl) benzamide] | < 5 µM |
| CNc1nccc(-c2cccnc2Oc2cc(C(=O)Nc3cccc(C(F)(F)F)c3C)ccc2F)n1 [Example 321, 4-fluoro-3-((3-(2-(methylamino)-4-pyrimidinyl)-2-pyridinyl)oxy)-N-(2-methyl-3-(trifluoromethyl)phenyl) benzamide] | < 5 µM |
| CNc1nccc(-c2cccnc2Oc2cccc(C(=O)Nc3ccccc3)c2C)n1 [Example 322, 2-methyl-3-((3-(2-(methylamino)-4-pyrimidinyl)-2-pyridinyl)oxy)-N-phenylbenzamide] | < 5 µM |
| CNc1nccc(-c2cccnc2Oc2cccc(C(=O)Nc3cccc(C(F)(F)F)c3)c2C)n1 [Example 323, 2-methyl-3-((3-(2-(methylamino)-4-pyrimidinyl)-2-pyridinyl)oxy)-N-(3-(trifluoromethyl)phenyl) benzamide] | < 5 µM |
| CNc1nccc(-c2cccnc2Oc2cccc(C(=O)Nc3cc(C(F)(F)F)ccc3N3CCCCC3)c2C)n1 [Example 324, 2-methyl-3-((3-(2-(methylamino)-4-pyrimidinyl)-2-pyridinyl)oxy)-N-(2-(1-piperidinyl)-5-(trifluoromethyl)phenyl) benzamide] | < 5 µM |

| Structure (SMILES) | IC50 |
| --- | --- |
| CNc1nccc(-c2cccnc2Oc2cccc(C(=O)Nc3cc(C4CCCCC4)ccc3OC)c2C)n1 [Example 325, N-(5-cyclohexyl-2-(methyloxy)phenyl)-2-methyl-3-((3-(2-(methylamino)-4-pyrimidinyl)-2-pyridinyl)oxy)benzamide] | < 5 µM |
| CNc1nccc(-c2cccnc2Oc2cccc(C(=O)Nc3cc(OC[C@@H]4CCCN4C)cc(C(F)(F)F)c3)c2C)n1 [Example 326, 2-methyl-3-((3-(2-(methylamino)-4-pyrimidinyl)-2-pyridinyl)oxy)-N-(3-((((2S)-1-methyl-2-pyrrolidinyl)methyl)oxy)-5-(trifluoromethyl)phenyl) benzamide] | < 5 µM |
| CNc1nccc(-c2cccnc2Oc2cccc(C(=O)Nc3ccc(C(C)C)cc3)c2C)n1 [Example 328, 2-methyl-3-((3-(2-(methylamino)-4-pyrimidinyl)-2-pyridinyl)oxy)-N-(4-(1-methylethyl)phenyl) benzamide] | < 5 µM |
| CNc1nccc(-c2cccnc2Oc2cccc(C(=O)Nc3cccc(C(F)(F)F)c3C)c2C)n1 [Example 329, 2-methyl-3-((3-(2-(methylamino)-4-pyrimidinyl)-2-pyridinyl)oxy)-N-(2-methyl-3-(trifluoromethyl)phenyl) benzamide] | < 5 µM |
| CNc1nccc(-c2cccnc2Oc2cccc(C(=O)Nc3cccc(C(F)(F)F)c3)c2F)n1 [Example 331, 2-fluoro-3-((3-(2-(methylamino)-4-pyrimidinyl)-2-pyridinyl)oxy)-N-(3-(trifluoromethyl)phenyl) benzamide] | < 5 µM |
| CNc1nccc(-c2cccnc2Oc2ccc(F)c(C(=O)Nc3cc(C4CCCCC4)ccc3OC)c2)n1 [Example 333, N-(5-cyclohexyl-2-(methyloxy)phenyl)-2-fluoro-5-((3-(2-(methylamino)-4-pyrimidinyl)-2-pyridinyl)oxy)benzamide] | < 5 µM |
| CNc1nccc(-c2cccnc2Oc2ccc(F)c(C(=O)Nc3cc(OC[C@@H]4CCCN4C)cc(C(F)(F)F)c3)c2)n1 [Example 334, 2-fluoro-5-((3-(2-(methylamino)-4-pyrimidinyl)-2-pyridinyl)oxy)-N-(3-((((2S)-1-methyl-2-pyrrolidinyl)methyl)oxy)-5-(trifluoromethyl)phenyl) benzamide] | < 5 µM |
| CNc1nccc(-c2cccnc2Oc2ccc(F)c(C(=O)Nc3ccccc3OC)c2)n1 [Example 335, 2-fluoro-5-((3-(2-(methylamino)-4-pyrimidinyl)-2-pyridinyl)oxy)-N-(2-(methyloxy)phenyl) benzamide] | < 5 µM |
| CNc1nccc(-c2cccnc2Oc2ccc(F)c(C(=O)Nc3ccc(C(C)C)cc3)c2)n1 [Example 336, 2-fluoro-5-((3-(2-(methylamino)-4-pyrimidinyl)-2-pyridinyl)oxy)-N-(4-(1-methylethyl)phenyl) benzamide] | < 5 µM |
| CNc1nccc(-c2cccnc2Oc2ccc(F)c(C(=O)Nc3cccc(C(F)(F)F)c3C)c2)n1 [Example 337, 2-fluoro-5-((3-(2-(methylamino)-4-pyrimidinyl)-2-pyridinyl)oxy)-N-(2-methyl-3-(trifluoromethyl)phenyl) benzamide] | < 5 µM |
| CNc1nccc(-c2cccnc2Oc2cc(C(=O)Nc3cc(C(F)(F)F)ccc3N(C)CCN(C)C)ccc2C)n1 [Example 338, N-(2-((2-(dimethylamino)ethyl) (methyl)amino)-5-(trifluoromethyl)phenyl)-4-methyl-3-((3-(2-(methyalmino)-4-pyrimidinyl)-2-pyridinyl)oxy)benzamide] | < 5 µM |
| CNc1nccc(-c2cccnc2Oc2cc(C(=O)Nc3cc(C(F)(F)F)ccc3N(C)CCCN(C)C)ccc2C)n1 [Example 340, N-(2-((3-(dimethylamino)propyl) (methyl)amino)-5-(trifluoromethyl)phenyl)-4-methyl-3-((3-(2-(methylamino)-4-pyrimidinyl)-2-pyridinyl)oxy)benzamide] | < 5 µM |
| CNc1ncnc(-c2cccnc2Oc2cc(C(=O)Nc3cc(C(F)(F)F)ccc3N(C)CCN(C)C)ccc2C)n1 [Example 341, N-(2-((2-(dimethylamino)ethyl) (methyl)amino)-5-(trifluoromethyl)phenyl)-4-methyl-3-((3-(4-(methylamino)-1,3,5-triazin-2-yl)-2-pyridinyl)oxy)benzamide] | < 5 µM |
| CNc1nccc(-c2cccnc2Sc2cccc(C(=O)Nc3cccc(C(F)(F)F)c3)c2)n1 [Example 342, 3-((3-(2-(methylamino)-4-pyrimidinyl)-2-pyridinyl)sulfanyl)-N-(3-(trifluoromethyl)phenyl) benzamide] | < 5 µM |
| CNc1cc(-c2cccnc2Oc2cc(C(=O)Nc3cc(C(C)(C)C)nn3-c3ccccc3)ccc2C)ccn1 [Example 344, N-(3-(1,1-dimethylethyl)-1-phenyl-1H-pyrazol-5-yl)-4-methyl-3-((2′-(methylamino)-3,4′-bipyridin-2-yl)oxy)benzamide] | < 5 µM |
| CNc1ncnc(-c2cccnc2Oc2cc(C(=O)Nc3cc(C(F)(F)F)ccc3N(C)CCCN(C)C)ccc2C)n1 [Example 345, N-(2-((3-(dimethylamino)propyl) (methyl)amino)-5-(trifluoromethyl)phenyl)-4-methyl-3-((3-(4-(methylamino)-1,3,5-triazin-2-yl)-2-pyridinyl)oxy)benzamide] | < 5 µM |
